Experimental data published in PubChem BioAssay AID1345085 (National Center for Advancing Translational Sciences (NCATS), 2018).
Inconclusive results, whose numbers are uncertain, are shown with a selection of clear calls. Potencies beside an inconclusive call are fits to weak or partial responses and may not hold up. Active and inactive are the calls of the source. Calls follow the shape of the dose curve; as a rule, active = well fitted cell-killing curve with a large enough effect; inconclusive = small, poorly fitted or top-dose-only effect, or effect the other way; inactive = no such curve, though single readings can be large or run the other way.

Tested on: Hek293T
Assay: Confirmatory qHTS for gynecologic anti-cancer compounds from libraries of approved drugs and bioactive compounds; also: nearly all actives have a fitted effect of over 55% in size
Details: gynecologic cancer cell panel viability, ATPlite luminescence, 48 h; series mostly up to 57.6 µM
Method in brief: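 Cells (1,000/well) plated 16 h, then exposed 48 h at 37 °C to 11 concentrations (1:3) from 57.5 uM to 0.977 nM. Viability by ATPlite luminescence after 15 min; IC50 derived, with HEK 293T used for selectivity index.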
Potency is read from the fitted curve at half-maximal effect.

Row | Structure (SMILES) | Potency
1 | C[C@H]1CCC/C=C/C2C[C@H](O)C[C@H]2[C@H](O)/C=C/C(=O)O1 (stereo not given in full) | active: 1.09 µM
2 | CCNC(=O)C[C@@H]1N=C(c2ccc(Cl)cc2)c2cc(OC)ccc2-n2c(C)nnc21 | inactive
3 | CCOc1ccccc1-n1c(C(C)N2CCN(C(=O)COc3ccc(Cl)cc3)CC2)nc2ccccc2c1=O (stereo not given) | inconclusive: 10.9 µM [cytotoxic, full curve, poor fit]
4 | Cc1sc2c(c1C)C(c1ccc(Cl)cc1)=NC(CC(=O)OC(C)(C)C)c1nnc(C)n1-2 (stereo not given) | inconclusive: 0.137 µM [cytotoxic, full curve]
5 | CCN1CCN(C(=O)Cc2ccc(Nc3ncc(F)c(Nc4ccc(C(=O)Nc5ccccc5Cl)cc4)n3)cc2)CC1 | inconclusive: 0.0109 µM [rising, full curve, poor fit]
6 | CCC(=O)O[C@H]1CC[C@H]2[C@@H]3CCC4=CC(=O)CC[C@]4(C)[C@H]3CC[C@]12C | inconclusive: 0.0097 µM [cytotoxic, full curve]
7 | C/C=C(/C)C(=O)O[C@H]1C(C)=C2[C@H]([C@@H]1OC(=O)CCCCCCC)[C@@](C)(OC(C)=O)C[C@H](OC(=O)CCC)[C@@]1(O)[C@H]2OC(=O)[C@@]1(C)O | inconclusive: 0.137 µM [cytotoxic, partial curve, poor fit]
8 | O=C(O)Cc1ccccc1 | inconclusive: 0.968 µM [cytotoxic, partial curve]
9 | C=C(C)[C@H]1Cc2c(ccc3c2O[C@@H]2COc4cc(OC)c(OC)cc4[C@@H]2C3=O)O1 | active: 0.432 µM
10 | C[C@]12CC[C@H]3[C@@H](CCC4=CC(=O)CC[C@@H]43)[C@@H]1CC[C@@H]2OC(=O)CCc1ccccc1 | inconclusive: 3.85 µM [cytotoxic, single point]

Quoted from the listing.
Entry for `C[C@H]1CCC/C=C/C2C[C@H](O)C[C@H]2[C@H](O)/C=C/C(=O)O1` (stereo not given in full) under Potency: active: 1.09 µM
Entry for `C/C=C(/C)C(=O)O[C@H]1C(C)=C2[C@H]([C@@H]1OC(=O)CCCCCCC)[C@@](C)(OC(C)=O)C[C@H](OC(=O)CCC)[C@@]1(O)[C@H]2OC(=O)[C@@]1(C)O` under Potency: inconclusive: 0.137 µM [cytotoxic, partial curve, poor fit]
